Whole data set: some 33,000 sequences, median “E-score (-0.5 to 0.5)” near -0.016, cut for the highest 2% near 0.3. The list shows a part of the results.
What follows are sequences tested against T1, Yer184c (UniProt P39961) (assay: PBM E-score (8-mer binding enrichment) (E-score (-0.5 to 0.5)); higher = stronger / more preferred TF binding). Details: protein concentration: 100 nM; construct: GST-full length.
T1 sequence: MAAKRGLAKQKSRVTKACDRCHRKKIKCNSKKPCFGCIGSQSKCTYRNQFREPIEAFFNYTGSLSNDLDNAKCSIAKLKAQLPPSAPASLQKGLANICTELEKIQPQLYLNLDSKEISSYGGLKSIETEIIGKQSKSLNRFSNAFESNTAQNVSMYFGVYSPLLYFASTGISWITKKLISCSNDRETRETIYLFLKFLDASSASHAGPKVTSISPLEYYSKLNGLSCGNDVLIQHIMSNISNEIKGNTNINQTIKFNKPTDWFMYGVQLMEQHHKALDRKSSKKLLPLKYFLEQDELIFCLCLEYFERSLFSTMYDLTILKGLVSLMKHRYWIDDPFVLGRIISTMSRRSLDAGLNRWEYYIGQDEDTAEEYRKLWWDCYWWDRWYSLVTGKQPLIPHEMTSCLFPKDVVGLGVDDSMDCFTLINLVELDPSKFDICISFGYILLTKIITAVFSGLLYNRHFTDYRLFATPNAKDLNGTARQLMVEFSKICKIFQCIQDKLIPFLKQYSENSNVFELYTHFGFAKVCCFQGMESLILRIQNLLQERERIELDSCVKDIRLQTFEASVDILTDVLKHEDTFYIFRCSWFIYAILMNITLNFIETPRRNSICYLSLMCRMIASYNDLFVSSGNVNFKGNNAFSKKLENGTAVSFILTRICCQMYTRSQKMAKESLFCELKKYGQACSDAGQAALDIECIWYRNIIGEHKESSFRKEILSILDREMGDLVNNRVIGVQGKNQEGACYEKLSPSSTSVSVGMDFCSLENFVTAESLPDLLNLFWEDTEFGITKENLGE
Experimental: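 Universal 'all 10-mer' protein binding microarrays (Agilent AMADID 015681) probed with GST-tagged S. cerevisiae TFs (full-length or DBD) made by in vitro transcription/translation (PURExpress), about 100-200 nM. Bound TF was detected with fluorescent anti-GST. Each ungapped 8-mer (which stands for itself and its reverse complement) is scored by the PBM enrichment score (E-score), a modified Wilcoxon-Mann-Whitney statistic from -0.5 to +0.5, computed with the Universal PBM Analysis Suite. Scale: above 0.35 generally sequence-specific binding.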
In the case of ACTTAGAG, the “PBM E-score” value is reported as -0.224.
For CTCGCAGA, the “PBM E-score” value was -0.176.
ATCCTACC was tested, and the “PBM E-score” value was -0.127.
With AGCCGGTG the “PBM E-score” value was 0.225.
With GAGGGTAC the “PBM E-score” value was -0.308.
In the case of AGGTGATC, the “PBM E-score” value is reported as -0.0596.
For ACGTCCAT, the “PBM E-score” value was -0.016.
In the case of GGAATTGA, the “PBM E-score” value is reported as 0.143.
In the case of ACTAATGA, the “PBM E-score” value is reported as 0.0791.
With TCCGCTCA the “PBM E-score” value was -0.245.
In the case of ATTGAAAC, the “PBM E-score” value is reported as 0.141.
GGGTTACA was tested, and the “PBM E-score” value was -0.0526.
In the case of ACGTATTA, the “PBM E-score” value is reported as 0.141.
For CACTCGTA, the “PBM E-score” value was -0.148.
With CCCAGTCA the “PBM E-score” value was -0.37.
CCGGATCC was tested, and the “PBM E-score” value was 0.372.
In the case of ACCTGAAA, the “PBM E-score” value is reported as 0.0786.
For AAGGGAGC, the “PBM E-score” value was -0.143.
With ACTTCCGG the “PBM E-score” value was 0.335.
For CAGCGGTC, the “PBM E-score” value was -0.18.
For AAGCATGT, the “PBM E-score” value was -0.0314.
GATAAAGC was tested, and the “PBM E-score” value was -0.00053.
For GTAGTCGA, the “PBM E-score” value was -0.00551.
With AGTACATG the “PBM E-score” value was -0.0174.
With ACCTGACA the “PBM E-score” value was -0.0586.
GGGTGTAC was tested, and the “PBM E-score” value was -0.222.
For ATTACTGG, the “PBM E-score” value was -0.0899.
ACTATGTG was tested, and the “PBM E-score” value was -0.0741.
With AAGGAGCA the “PBM E-score” value was -0.122.
With CACAATCC the “PBM E-score” value was 0.0651.
CTCGACAG was tested, and the “PBM E-score” value was -0.146.
ACTCACGA was tested, and the “PBM E-score” value was -0.0488.
In the case of ATTTTTAG, the “PBM E-score” value is reported as 0.0507.
With CTGGTGTC the “PBM E-score” value was -0.0649.
For TCGTCGCA, the “PBM E-score” value was -0.0269.
For CCAAACTA, the “PBM E-score” value was -0.0721.
In the case of GAGCTGCC, the “PBM E-score” value is reported as 0.00086.
In the case of CGGAAAGA, the “PBM E-score” value is reported as 0.243.
With AACGAACT the “PBM E-score” value was 0.0561.
With CCATAACC the “PBM E-score” value was -0.184.
With GACACTGC the “PBM E-score” value was -0.103.
With AAATGTCG the “PBM E-score” value was -0.037.
AGCCAAAT was tested, and the “PBM E-score” value was 0.119.
In the case of CCGTCTGC, the “PBM E-score” value is reported as 0.003.
TATTACAA was tested, and the “PBM E-score” value was 0.0425.
ACAACGAG was tested, and the “PBM E-score” value was -0.0614.
In the case of ATGCGGTA, the “PBM E-score” value is reported as 0.059.
With CTAGGGGA the “PBM E-score” value was -0.319.
In the case of CAGTCACA, the “PBM E-score” value is reported as -0.0529.
With AATCTCAT the “PBM E-score” value was -0.032.
For CTGGATCA, the “PBM E-score” value was -0.0847.
In the case of AAATGGCG, the “PBM E-score” value is reported as -0.0657.
With CCTACGTA the “PBM E-score” value was -0.0164.
With CGAATTCA the “PBM E-score” value was 0.198.
For TAGAACTA, the “PBM E-score” value was 0.132.
In the case of CGGCAATA, the “PBM E-score” value is reported as 0.29.
For AGCCAGGC, the “PBM E-score” value was -0.172.
With ATGAGGCG the “PBM E-score” value was -0.0692.
In the case of ATCGGTTG, the “PBM E-score” value is reported as 0.0709.
For ACGATAGT, the “PBM E-score” value was -0.0276.
In the case of CTGGGGGC, the “PBM E-score” value is reported as -0.339.
In the case of TGATCACA, the “PBM E-score” value is reported as 0.0834.
For AGCAATGA, the “PBM E-score” value was -0.0481.
In the case of GGAGTTCA, the “PBM E-score” value is reported as 0.147.
With AGCAACGG the “PBM E-score” value was 0.186.
With AATGCACC the “PBM E-score” value was 0.032.
With CATAGAGC the “PBM E-score” value was -0.267.
CTGGAAGC was tested, and the “PBM E-score” value was -0.26.
AAAGCTAT was tested, and the “PBM E-score” value was 0.149.
With AATTAACC the “PBM E-score” value was 0.167.
For ATAAGAAT, the “PBM E-score” value was 0.247.
With ATACGACA the “PBM E-score” value was -0.0307.
ACATTACA was tested, and the “PBM E-score” value was -0.0825.
ACCAGTAA was tested, and the “PBM E-score” value was 0.195.
In the case of AAAGGCCA, the “PBM E-score” value is reported as -0.297.
In the case of AGCAACGC, the “PBM E-score” value is reported as 0.0574.
ACTGACTC was tested, and the “PBM E-score” value was -0.218.
For GATCCATA, the “PBM E-score” value was -0.0186.
With ACCCGGTA the “PBM E-score” value was 0.183.
TGCTTGAA was tested, and the “PBM E-score” value was 0.217.
GAACGCCA was tested, and the “PBM E-score” value was 0.0016.
In the case of GAGGTTCC, the “PBM E-score” value is reported as 0.0805.
In the case of CCTCTTGC, the “PBM E-score” value is reported as -0.175.
For CAAGTGAC, the “PBM E-score” value was -0.0157.
For CTGAGGTC, the “PBM E-score” value was -0.309.
CTGGGTTA was tested, and the “PBM E-score” value was -0.115.
